# Reference: the supplement of paper PMC8728848
# This is one part of the list.
# B1: OS9 (Arabidopsis thaliana) (protein)
# chain: MRGSHHHHHHGMASMTGGQQMGRDLYDDDDKSRLQIFPAHLVGTFSRNNREPKYKIEFLPEDSPFHPGDNLESMVMLDKHGNRFLCYLPKEEKATSGWTSSQQNISTVMMETQQLVKLKTPDELLQPLSEKCLFRQEGWWSYEFCHQKYVRQLHVEDENKIVQEFFLGTFDPEATAAFNQTVSDASTDASQRYHSHVYTNGTTCDLTGSPAEVEVRFVCAETRAMVTSITELSTCKYALTVQCPTLCKHPLFQLEKPVSHTIHCNAIPVEEDATRNKEEQAVDESPKMIADS
# Assays:
# [1] = molecular target: Neu5Gc(a2-8)Neu5Gc(a2-6)Gal(b1-4)GlcNAc; experiment: glycan array binding signal (z-score within array); higher = stronger binding; details: glycan notation: IUPAC condensed, linker removed; mutation: R201A
# Summary of the method: (§1)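 Negative Z-scores can be read as non-binding. The Z-score is calculated within each array and then averaged across arrays of one protein sequence at different concentrations or buffers and across linkers. Arrays, 3228 in all, were curated from the Consortium for Functional Glycomics database and kept only where the protein sequence was available.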
# [2] = molecular target: Neu5Gc(b2-6)Gal(b1-4)GlcNAc; experiment: as above; details: glycan notation: IUPAC condensed, linker removed; mutation: R201A
# Summary of the method: as §1
binder,measurement,setting,value
B1,glycan array binding signal (z-score),[1],-0.691
same,glycan array binding signal (z-score),[2],-0.321
